The test deals with skeletal muscle ryanodine receptor 1 (mouse (endogenous in gastrocnemius muscle)) (UniProt E9PZQ0). Briefly: co-IP.

Amino acid sequences for entries named in this document (tags omitted).
UniProt E9PZQ0: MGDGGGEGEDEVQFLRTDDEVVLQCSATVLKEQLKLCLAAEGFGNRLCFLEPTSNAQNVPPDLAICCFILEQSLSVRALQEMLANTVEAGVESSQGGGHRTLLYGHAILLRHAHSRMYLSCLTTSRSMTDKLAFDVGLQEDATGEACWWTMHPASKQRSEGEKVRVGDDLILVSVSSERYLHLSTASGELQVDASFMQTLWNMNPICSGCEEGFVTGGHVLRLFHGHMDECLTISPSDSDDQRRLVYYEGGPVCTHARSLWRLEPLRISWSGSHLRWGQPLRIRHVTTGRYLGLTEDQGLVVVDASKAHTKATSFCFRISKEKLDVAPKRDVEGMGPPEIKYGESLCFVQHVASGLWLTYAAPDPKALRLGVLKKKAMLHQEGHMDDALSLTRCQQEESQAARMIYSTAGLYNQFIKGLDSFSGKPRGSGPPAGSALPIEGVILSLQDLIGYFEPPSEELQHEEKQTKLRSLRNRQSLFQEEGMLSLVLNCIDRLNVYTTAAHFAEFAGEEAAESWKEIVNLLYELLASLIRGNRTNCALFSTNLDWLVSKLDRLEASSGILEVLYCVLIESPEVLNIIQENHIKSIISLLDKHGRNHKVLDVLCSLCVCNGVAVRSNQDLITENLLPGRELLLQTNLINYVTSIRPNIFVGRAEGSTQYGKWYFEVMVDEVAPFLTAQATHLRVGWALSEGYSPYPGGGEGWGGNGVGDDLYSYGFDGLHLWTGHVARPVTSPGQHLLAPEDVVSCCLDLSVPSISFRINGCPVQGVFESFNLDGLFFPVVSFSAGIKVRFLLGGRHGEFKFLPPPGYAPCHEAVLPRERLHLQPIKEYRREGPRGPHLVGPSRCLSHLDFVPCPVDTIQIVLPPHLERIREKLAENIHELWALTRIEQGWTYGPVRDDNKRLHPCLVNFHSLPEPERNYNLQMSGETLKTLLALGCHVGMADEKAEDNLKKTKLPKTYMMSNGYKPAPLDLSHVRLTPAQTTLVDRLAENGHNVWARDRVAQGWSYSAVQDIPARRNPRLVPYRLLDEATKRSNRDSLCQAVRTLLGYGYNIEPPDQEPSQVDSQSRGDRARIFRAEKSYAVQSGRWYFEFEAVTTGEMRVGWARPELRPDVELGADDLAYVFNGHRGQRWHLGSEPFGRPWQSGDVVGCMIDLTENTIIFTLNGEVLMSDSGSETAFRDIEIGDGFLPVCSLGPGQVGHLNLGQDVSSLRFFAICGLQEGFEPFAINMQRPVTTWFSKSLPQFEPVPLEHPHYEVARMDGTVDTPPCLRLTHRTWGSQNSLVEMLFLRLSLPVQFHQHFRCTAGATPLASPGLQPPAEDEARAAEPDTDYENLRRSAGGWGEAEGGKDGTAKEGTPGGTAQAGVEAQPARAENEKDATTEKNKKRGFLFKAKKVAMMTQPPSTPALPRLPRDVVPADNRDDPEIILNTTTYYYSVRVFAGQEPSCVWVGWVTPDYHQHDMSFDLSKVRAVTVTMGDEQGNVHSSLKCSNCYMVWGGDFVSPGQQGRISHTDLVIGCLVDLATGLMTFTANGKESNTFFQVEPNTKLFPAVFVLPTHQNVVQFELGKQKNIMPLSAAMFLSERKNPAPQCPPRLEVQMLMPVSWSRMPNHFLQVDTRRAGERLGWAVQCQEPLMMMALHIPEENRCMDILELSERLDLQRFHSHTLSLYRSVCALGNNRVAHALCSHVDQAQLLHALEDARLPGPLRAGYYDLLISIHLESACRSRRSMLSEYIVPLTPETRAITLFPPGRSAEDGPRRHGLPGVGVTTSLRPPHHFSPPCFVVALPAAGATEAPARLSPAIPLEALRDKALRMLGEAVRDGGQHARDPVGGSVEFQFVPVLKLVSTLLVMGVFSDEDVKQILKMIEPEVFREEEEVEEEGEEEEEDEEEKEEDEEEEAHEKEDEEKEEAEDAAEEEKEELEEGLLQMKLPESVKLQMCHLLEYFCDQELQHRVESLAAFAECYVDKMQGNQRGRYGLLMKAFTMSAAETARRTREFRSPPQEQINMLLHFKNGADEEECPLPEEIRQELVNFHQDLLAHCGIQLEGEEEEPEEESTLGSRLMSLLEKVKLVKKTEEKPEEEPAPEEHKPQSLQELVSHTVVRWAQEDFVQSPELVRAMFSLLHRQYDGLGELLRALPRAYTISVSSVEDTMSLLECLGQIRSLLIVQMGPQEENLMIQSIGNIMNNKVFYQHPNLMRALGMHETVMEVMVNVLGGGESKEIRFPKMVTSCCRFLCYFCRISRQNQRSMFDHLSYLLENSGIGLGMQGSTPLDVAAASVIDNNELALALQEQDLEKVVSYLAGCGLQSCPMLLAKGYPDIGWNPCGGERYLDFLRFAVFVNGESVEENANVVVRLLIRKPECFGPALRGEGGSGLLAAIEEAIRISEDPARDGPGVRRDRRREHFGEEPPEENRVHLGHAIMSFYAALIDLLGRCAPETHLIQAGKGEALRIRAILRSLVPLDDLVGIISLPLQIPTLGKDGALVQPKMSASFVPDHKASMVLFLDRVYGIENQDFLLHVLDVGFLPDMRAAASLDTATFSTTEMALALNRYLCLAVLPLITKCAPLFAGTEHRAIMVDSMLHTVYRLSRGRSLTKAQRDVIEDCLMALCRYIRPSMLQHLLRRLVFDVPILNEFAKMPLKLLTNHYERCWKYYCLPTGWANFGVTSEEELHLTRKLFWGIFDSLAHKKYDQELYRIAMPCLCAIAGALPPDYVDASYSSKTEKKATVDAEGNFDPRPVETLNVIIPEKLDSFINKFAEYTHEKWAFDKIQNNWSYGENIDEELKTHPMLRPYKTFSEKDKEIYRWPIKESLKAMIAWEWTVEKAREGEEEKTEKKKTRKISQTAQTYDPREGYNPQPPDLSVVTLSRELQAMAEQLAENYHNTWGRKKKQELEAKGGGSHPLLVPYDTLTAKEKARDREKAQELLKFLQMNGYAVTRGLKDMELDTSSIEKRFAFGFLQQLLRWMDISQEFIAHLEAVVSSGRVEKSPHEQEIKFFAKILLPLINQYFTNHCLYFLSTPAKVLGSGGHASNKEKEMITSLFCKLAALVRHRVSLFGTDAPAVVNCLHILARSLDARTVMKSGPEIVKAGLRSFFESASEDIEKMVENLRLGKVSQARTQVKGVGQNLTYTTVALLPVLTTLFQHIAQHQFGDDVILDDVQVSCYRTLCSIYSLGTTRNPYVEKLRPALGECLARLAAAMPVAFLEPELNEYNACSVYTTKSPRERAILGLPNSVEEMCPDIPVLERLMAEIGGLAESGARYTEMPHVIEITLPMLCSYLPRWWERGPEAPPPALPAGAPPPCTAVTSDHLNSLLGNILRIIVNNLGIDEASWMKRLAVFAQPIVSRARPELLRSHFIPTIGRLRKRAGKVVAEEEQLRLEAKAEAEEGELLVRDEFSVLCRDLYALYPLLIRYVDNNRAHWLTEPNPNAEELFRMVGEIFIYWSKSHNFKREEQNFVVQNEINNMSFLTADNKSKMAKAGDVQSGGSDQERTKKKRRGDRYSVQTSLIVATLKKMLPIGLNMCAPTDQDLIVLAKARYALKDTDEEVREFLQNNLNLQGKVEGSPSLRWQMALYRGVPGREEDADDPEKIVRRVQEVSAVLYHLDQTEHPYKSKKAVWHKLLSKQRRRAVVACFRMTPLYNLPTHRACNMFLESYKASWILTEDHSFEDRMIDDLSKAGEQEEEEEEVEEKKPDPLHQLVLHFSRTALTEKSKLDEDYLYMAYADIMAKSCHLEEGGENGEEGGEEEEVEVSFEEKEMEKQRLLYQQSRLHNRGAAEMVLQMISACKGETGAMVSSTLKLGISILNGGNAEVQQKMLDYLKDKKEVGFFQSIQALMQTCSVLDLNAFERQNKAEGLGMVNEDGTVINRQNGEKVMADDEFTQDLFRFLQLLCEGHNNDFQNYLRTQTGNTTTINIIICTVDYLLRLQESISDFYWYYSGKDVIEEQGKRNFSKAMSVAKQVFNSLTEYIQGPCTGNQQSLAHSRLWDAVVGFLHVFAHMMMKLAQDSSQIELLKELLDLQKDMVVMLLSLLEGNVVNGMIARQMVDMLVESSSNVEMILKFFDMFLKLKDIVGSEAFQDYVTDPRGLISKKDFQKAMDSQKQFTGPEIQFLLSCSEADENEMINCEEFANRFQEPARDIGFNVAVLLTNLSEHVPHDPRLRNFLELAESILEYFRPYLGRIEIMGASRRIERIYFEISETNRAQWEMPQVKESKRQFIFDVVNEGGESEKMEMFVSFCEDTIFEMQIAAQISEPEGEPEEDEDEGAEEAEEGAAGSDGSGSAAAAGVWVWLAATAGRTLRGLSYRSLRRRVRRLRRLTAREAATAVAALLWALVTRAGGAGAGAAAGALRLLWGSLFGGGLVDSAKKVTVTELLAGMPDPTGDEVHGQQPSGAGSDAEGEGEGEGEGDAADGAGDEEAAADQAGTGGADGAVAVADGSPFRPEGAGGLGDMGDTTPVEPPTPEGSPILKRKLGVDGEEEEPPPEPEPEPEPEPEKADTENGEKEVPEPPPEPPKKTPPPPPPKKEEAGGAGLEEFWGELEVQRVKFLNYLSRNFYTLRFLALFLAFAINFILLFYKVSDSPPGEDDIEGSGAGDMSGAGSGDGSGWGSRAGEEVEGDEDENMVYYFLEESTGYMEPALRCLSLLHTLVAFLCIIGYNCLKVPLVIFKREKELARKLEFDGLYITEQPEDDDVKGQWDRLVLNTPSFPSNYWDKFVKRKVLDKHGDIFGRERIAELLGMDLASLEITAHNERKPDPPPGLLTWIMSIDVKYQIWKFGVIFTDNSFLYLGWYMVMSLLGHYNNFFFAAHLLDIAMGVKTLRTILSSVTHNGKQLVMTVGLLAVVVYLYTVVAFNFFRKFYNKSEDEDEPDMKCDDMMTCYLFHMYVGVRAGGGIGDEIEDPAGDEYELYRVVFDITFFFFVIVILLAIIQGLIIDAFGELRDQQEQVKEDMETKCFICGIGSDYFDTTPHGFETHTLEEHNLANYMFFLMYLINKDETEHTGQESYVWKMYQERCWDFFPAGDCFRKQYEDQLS
UniProt P26883: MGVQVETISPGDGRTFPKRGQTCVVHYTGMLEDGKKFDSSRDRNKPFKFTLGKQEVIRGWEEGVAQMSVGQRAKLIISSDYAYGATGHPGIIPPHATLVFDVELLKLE

No constants are given. Whether binding was seen depends on the method and setting. In cells and extracts the contact can be indirect. Some results given as binding are weak or reduced against the parent protein; the word gives no strength.

Regarding calstabin 1 (from UniProt P26883 1-108), the binding entry was “binds”.

(Values after publication doi:10.1101/2023.08.04.551985.)
